# For some of these results: Shown are results outside the selection of hits, which stands elsewhere. Records with an inconclusive call do not appear. Only a part is listed here, and it is no random draw. Calls of active or inactive are those of the source. Rule for the calls, unless noted: active = hit-call score of the fitted dose curve at least 0.9, where 1 is the maximum; inactive = score below 0.9.
# Sequences of proteins named here, by UniProt entry; tags and fusion partners are left off. A change or cut given only in a name is not applied to a line headed by its entry.
# UniProt P06401: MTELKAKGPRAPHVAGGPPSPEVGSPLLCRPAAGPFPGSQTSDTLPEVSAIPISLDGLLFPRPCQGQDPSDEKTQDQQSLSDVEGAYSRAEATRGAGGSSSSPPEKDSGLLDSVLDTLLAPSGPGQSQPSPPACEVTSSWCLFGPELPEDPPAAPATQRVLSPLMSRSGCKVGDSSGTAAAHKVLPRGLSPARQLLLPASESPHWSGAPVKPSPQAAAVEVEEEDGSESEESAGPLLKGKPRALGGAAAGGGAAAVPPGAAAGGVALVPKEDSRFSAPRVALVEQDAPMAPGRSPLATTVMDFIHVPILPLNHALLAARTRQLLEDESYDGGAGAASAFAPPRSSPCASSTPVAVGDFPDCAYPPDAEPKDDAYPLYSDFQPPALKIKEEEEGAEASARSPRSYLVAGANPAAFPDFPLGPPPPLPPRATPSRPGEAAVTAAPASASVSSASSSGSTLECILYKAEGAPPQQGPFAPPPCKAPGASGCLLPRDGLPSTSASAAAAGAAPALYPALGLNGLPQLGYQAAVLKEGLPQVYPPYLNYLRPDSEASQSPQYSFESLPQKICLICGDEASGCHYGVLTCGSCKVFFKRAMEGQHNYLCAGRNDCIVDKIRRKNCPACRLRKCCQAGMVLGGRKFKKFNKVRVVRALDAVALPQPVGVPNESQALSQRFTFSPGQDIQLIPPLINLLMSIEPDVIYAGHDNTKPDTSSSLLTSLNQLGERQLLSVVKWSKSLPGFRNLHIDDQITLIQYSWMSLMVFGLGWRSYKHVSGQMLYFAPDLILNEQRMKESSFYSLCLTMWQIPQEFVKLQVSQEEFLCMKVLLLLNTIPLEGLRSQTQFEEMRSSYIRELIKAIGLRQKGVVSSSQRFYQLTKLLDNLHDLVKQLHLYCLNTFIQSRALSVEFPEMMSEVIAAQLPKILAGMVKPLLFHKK
# UniProt P40763, whole entry, looked up: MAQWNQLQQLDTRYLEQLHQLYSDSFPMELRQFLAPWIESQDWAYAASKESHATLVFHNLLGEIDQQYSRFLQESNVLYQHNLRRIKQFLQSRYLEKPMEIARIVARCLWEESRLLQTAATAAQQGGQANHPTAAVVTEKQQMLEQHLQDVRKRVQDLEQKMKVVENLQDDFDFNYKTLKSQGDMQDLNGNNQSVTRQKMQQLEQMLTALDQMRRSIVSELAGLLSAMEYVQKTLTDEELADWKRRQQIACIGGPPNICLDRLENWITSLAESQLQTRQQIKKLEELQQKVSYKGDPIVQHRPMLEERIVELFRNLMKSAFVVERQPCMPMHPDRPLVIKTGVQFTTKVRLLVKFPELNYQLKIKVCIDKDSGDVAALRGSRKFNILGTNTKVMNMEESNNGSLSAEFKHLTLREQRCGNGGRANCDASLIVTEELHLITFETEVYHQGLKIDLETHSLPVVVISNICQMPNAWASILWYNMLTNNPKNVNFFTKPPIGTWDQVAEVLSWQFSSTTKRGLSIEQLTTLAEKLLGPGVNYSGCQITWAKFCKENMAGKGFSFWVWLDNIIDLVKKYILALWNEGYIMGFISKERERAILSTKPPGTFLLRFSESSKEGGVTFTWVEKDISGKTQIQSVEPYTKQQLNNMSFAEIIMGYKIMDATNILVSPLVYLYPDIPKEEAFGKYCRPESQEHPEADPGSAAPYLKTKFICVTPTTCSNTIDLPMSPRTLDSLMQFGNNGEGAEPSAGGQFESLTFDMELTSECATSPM
# Assays:
# [1] = read-out: Interleukin-8 (IL8), CXCL8 (gene 3576); assay: BSK_SAg_IL8: BioMAP Diversity Plus: SAg Assay for Interleukin-8 (IL8) Biomarker Activity (AID 2283094); settings: actives raise or lower the signal; primary human HUVEC with PBMC
# Outline: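 Primary human endothelial cells with PBMC, exposed 24 h; IL-8 determined by ELISA, analysed bidirectionally relative to DMSO.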
# [2] = STM_H9_CystineISnorm_perc: Stemina devTOX quickPredict H9 human embryonic stem cell (hESC)-based Assay for Cystine (CYSS) Metabolite Biomarker, Normalized (AID 2283713)
# Outline: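 Normalized cystine level in conditioned medium from the final 24h of a 72h treatment of pluripotent H9 cells (daily media and compound renewal). Quantified by UPLC-HRMS with C13-labeled internal standard; scaled to median of 0.1% DMSO vehicle wells.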
# [3] = ATG_M_06_XSP1: Attagene TRANS-FACTORIAL Multi-Species (XSP1) HepG2 Assay for M06 Transcription Factor (Internal Marker) (AID 2283790; active = hit-call score of the fitted dose curve at least 0.9, where 1 is the maximum)
# Outline: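 This background-control readout tracks M06 reporter mRNA, measured by RT-PCR and capillary electrophoresis. HepG2 cells transiently carrying the GAL4-UAS reporter panel were dosed for 24 h with 3 nM 6-alpha-fluorotestosterone added for partial AR stimulation; increases were scored relative to DMSO.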
# [4] = ATG_M_61_XSP1: Attagene TRANS-FACTORIAL Multi-Species (XSP1) HepG2 Assay for M61 Transcription Factor (Internal Marker) (AID 2283797; active = hit-call score of the fitted dose curve at least 0.9, where 1 is the maximum)
# Outline: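 Background-control readout: reporter transcripts measured by RT-PCR and capillary electrophoresis 24 h after dosing transiently transfected HepG2 multi-reporter cells, with 3 nM 6-alpha-fluorotestosterone present. Fitted in the positive direction relative to DMSO.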
# [5] = read-out: TIMP metallopeptidase inhibitor 2 (TIMP2), TIMP2 (gene 7077); assay: BSK_KF3CT_TIMP2: BioMAP Diversity Plus: KF3CT Assay for TIMP metallopeptidase inhibitor 2 (TIMP2) Biomarker Activity (AID 2283071); settings: actives raise or lower the signal; primary human keratinocytes with fibroblasts
# Outline: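 Measurements come from ELISA detection of TIMP-2 at 24 hours in a dosed human keratinocyte and foreskin fibroblast co-culture. DMSO serves as negative control and baseline.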
# CD40, CD40 (gene 958) [6] = assay: BSK_LPS_CD40: BioMAP Diversity Plus: LPS Assay for CD40 Biomarker Activity (AID 2283076); settings: actives raise or lower the signal; primary human HUVEC with PBMC
# Outline: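 CD40 signal, measured by ELISA, is fitted in both directions relative to DMSO vehicle. The system is an LPS-driven human vascular primary co-culture of endothelial cells and PBMC, sampled 24 h after compound addition.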
# [7] = read-out: xenobiotic metabolism (CYP1A1), CYP1A1 (gene 1543); assay: CLD_CYP1A1_48hr: CellzDirect (CLD) Gene Expression Assay for xenobiotic metabolism (CYP1A1) at 48 hours (AID 2283705; active = hit-call score of the fitted dose curve at least 0.9, where 1 is the maximum)
# Outline: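 CYP1A1 transcript measured by quantitative nuclease protection (chemiluminescent) 48 h after two daily treatments of human hepatocyte cultures, versus 0.2% DMSO. Morphology-based cytotoxicity flags accompany data; two donor preparations used.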
# [8] = BSK_LPS_SRB: Viability Assessment in the BioMAP Diversity Plus: LPS Assay (AID 2283079); settings: primary human HUVEC with PBMC;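 note: total protein by sulforhodamine B absorbance as a cytotoxicity measure; measured one day after compound addition; fitted in both directions against DMSO so loss or gain of signal counts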
# Outline: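 Overt cytotoxicity was gauged by sulforhodamine B total-protein staining in a primary human vascular endothelial and mononuclear cell co-culture 24 h post-dosing. Activity was fitted in both directions relative to DMSO.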
# [9] = CEETOX_H295R_CORTISOL: CeeTox H295R High-throughput Steroidogenesis Assay for Cortisol (AID 2283438); settings: actives raise or lower the signal;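 note: cortisol secreted into medium quantified by LC-MS/MS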
# Outline: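 Steroidogenesis in H295R, per modified OECD 456: 48 h forskolin (10 uM), then 48 h exposure, 0.1% DMSO. Cortisol by extraction and tandem MS; viability by MTT (570/650 nm); cytotoxic chemicals diluted and re-tested.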
# [10] = read-out: Matrix Metallopeptidase 9 (MMP9), MMP9 (gene 4318); assay: BSK_KF3CT_MMP9: BioMAP Diversity Plus: KF3CT Assay for Matrix Metallopeptidase 9 (MMP9) Biomarker Activity (AID 2283074); settings: actives raise or lower the signal; primary human keratinocytes with fibroblasts;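 note: MMP9 protein level quantified by ELISA in the co-culture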
# Outline: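 MMP-9 quantified by ELISA after 24 h chemical treatment of primary human skin keratinocyte/fibroblast co-cultures; gain or loss fitted against DMSO, with parallel SRB staining (0.1% SRB, 560 nm) for overt cytotoxicity.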
# CD40, CD40 (gene 958) [11] = assay: BSK_SAg_CD40: BioMAP Diversity Plus: SAg Assay for CD40 Biomarker Activity (AID 2283088); settings: actives raise or lower the signal; primary human HUVEC with PBMC
# Outline: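 Fluorescence ELISA read-out of CD40 from umbilical vein endothelium plus peripheral blood mononuclear cells, sampled 24 h after dosing. Values come from bidirectional curve fitting with DMSO as baseline.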
# [12] = read-out: flavin-containing dimethylaniline monooxygenases 3 (FMO3), FMO3 (gene 2328); assay: LTEA_HepaRG_FMO3: Life Technologies and Expression Analysis (LTEA) Assay for flavin-containing dimethylaniline monooxygenases 3 (FMO3) using HepaRG (AID 2283453); settings: actives raise or lower the signal; mRNA level, 48 h;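 note: differentiated human HepaRG liver cells in serum-free induction medium; FMO3 transcript by TaqMan qRT-PCR normalized to ACTB GAPDH and POLR2A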
# Outline: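 Eight-point concentration-response in serum-free HepaRG cultures (top 100 uM, 0.5% DMSO, 48 h). Read-out: FMO3 mRNA level normalized to three endogenous control genes, fitted bidirectionally versus vehicle.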
# [13] = read-out: ABC Transporter (ABCB1), ABCB1 (gene 5243); assay: CLD_ABCB1_24hr: CellzDirect (CLD) Gene Expression Assay for ABC Transporter (ABCB1) at 24 hours (AID 2283684; active = hit-call score of the fitted dose curve at least 0.9, where 1 is the maximum)
# Outline: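 ABCB1 mRNA induction versus 0.2% DMSO vehicle was read by qNPA chemiluminescence at 24 h. Cultured human hepatocytes from two donor preparations received daily fresh dosing, and phase-contrast cytotoxicity calls were annotated alongside the data.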
# PGR (gene 5241) = PGR (gene 5241) (UniProt P06401); assay: NVS_NR_hPR: NovaScreen (NVS) Nuclear Receptor Binding Assay for human Progestron Receptor (PR) (AID 2283360; active = hit-call score of the fitted dose curve at least 0.9, where 1 is the maximum;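 note: active means loss of bound radioligand signal versus DMSO baseline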)
# Outline: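 T47D lysate; tritiated or iodinated radioligand; scintillation count at 18 h. DMSO = negative control/baseline. Primary: 25 uM, duplicate. Secondary: concentration series for actives.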
# [14] = read-out: Cyclin D2 (CCND2), CCND2 (gene 894); assay: LTEA_HepaRG_CCND2: Life Technologies and Expression Analysis (LTEA) Assay for Cyclin D2 (CCND2) using HepaRG (AID 2283449); settings: actives raise or lower the signal; mRNA level, 48 h
# Outline: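 CCND2 transcript levels, quantified by qRT-PCR and normalised to three housekeeping genes, were fitted bidirectionally against 0.5% DMSO. HepaRG cultures were dosed 48 h in duplicate with an 8-point half-log series up to 100 uM.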
# [15] = read-out: Ezrin (EZR), EZR (gene 7430); assay: LTEA_HepaRG_EZR: Life Technologies and Expression Analysis (LTEA) Assay for Ezrin (EZR) using HepaRG (AID 2283491); settings: actives raise or lower the signal; mRNA level, 48 h
# [16] = read-out: Signal transducer and activator of transcription 3 (Homo sapiens) (UniProt P40763); assay: LTEA_HepaRG_STAT3: Life Technologies and Expression Analysis (LTEA) Assay for Signal transducer and activator of transcription (STAT3) using HepaRG (AID 2283529); settings: actives raise or lower the signal; mRNA level, 48 h
# Outline: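 STAT3 transcript quantified by qRT-PCR against three housekeeping genes (ACTB, GAPDH, POLR2A), fitted both directions relative to DMSO. HepaRG cultures exposed 48 h to eight half-log concentrations, top 100 uM, 0.5% DMSO, serum-free induction medium.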
structure (smiles),measurement,setting,value
OC(c1ccc(Cl)cc1)(c1cncnc1)c1ccccc1Cl (centres undefined),AC50,[1],active: 13.7 µM
same,outcome,[2],inactive
same,outcome,[3],inactive
same,outcome,[4],inactive
O=C(N[C@H](c1ccccc1)[C@@H]1CN2CCC1CC2)c1c(Cl)ccc(C(F)(F)F)c1Cl,AC50,[5],active: 41.2 µM
Cc1[nH]c(=O)n(C(C)(C)C)c(=O)c1Cl,outcome,"CD40, CD40 (gene 958) [6]",inactive
same,AC50,[7],active: 8.4 µM
CCCCCOC(=O)c1ccccc1C(=O)OCCCCC,outcome,[8],inactive
same,outcome,[9],inactive
Cc1ccc2nc3sc(=O)sc3nc2c1,AC50,[10],active: 4.79 µM
C=CCOC(=O)C(C)(C)OC(=O)c1cc(-n2c(=O)cc(C(F)(F)F)n(C)c2=O)ccc1Cl,AC50,"CD40, CD40 (gene 958) [11]",active: 7.79 µM
OC(c1ccc(Cl)cc1)(c1ccc(Cl)cc1)C(Cl)(Cl)Cl,AC50,[8],active: 32.4 µM
same,AC50,[12],active: 76.2 µM
same,outcome,[13],inactive
FC(F)C(F)(F)OCC(Cn1cncn1)c1ccc(Cl)cc1Cl (centres undefined),AC50,"CD40, CD40 (gene 958) [11]",active: 30 µM
same,outcome,PGR (gene 5241),inactive
same,outcome,[14],inactive
same,outcome,[15],inactive
same,outcome,[16],inactive

# Reference: PubChem BioAssay (EPA / NIEHS)
